Here are results for 62 compounds from PubChem BioAssay AID2685 (National Center for Advancing Translational Sciences (NCATS), 2010).

The experiment is described as follows: qHTS Assay for Lipid Storage Modulators in Drosophila S3 Cells.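 On cell number change: cells counted by Cell Tracker Red CMTPX staining in the red channel.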 Conditions: BODIPY lipid droplet fluorescence, 18-24 h; for cell number change: measured here: cell count max response, cells fed with added oleic acid. The procedure, abridged:
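Drosophila S3 cells got compounds at several concentrations plus oleic acid (400 uM solution). Laser-scanning cytometry with 488 nm excitation read lipid droplets at 500-530 nm and cells at 575-640 nm. Percent activity was relative to 20 uM Triacsin C.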
(Quantitative high-throughput screening tests each substance at several concentrations.)

[1] abbreviates: measured here: cell number channel AC50, cells fed with added oleic acid.
Where [2] appears, read: measured here: lipid fluorescence (Fed channel) AC50, cells fed with added oleic acid.

Structures are written as SMILES. Some of the results follow. The main result of the screen is listed elsewhere. These columns were measured beside it and carry no call. Compounds called inactive in the main read-out are mostly missing here. Words in brackets tell the shape of the fitted curve; partial curves, single points and poor fits give uncertain potencies.

Broadly, the AC50 is the concentration giving half of the maximal activity seen. Lower therefore signals activity at low concentration. Turning to `CCc1ccccc1OCC(=O)Nc1cccc(S(=O)(=O)N2CCCC2)c1`, the AC50 under setting [1] is 0.461 µM [rising, full curve, poor fit].

With `CC(CCc1ccccc1)NC(=O)C(=O)NCCO` (stereo unspecified), the cell number change is -88.6%. The AC50 under setting [1] is 2.06 µM [falling, partial curve, poor fit].

With `COc1ccc(C(=O)NCCSc2ccccc2C)cc1`, the cell number change was 0.493%.

Consider `CC1CCCC(C)N1C(=O)c1ccc(S(=O)(=O)NCc2ccco2)cc1` (stereo unspecified), for which the cell number change is -0.435%. For the same compound, the AC50 under setting [2] is 25.9 µM [rising, partial curve].

For the compound `O=C(COC(=O)c1cccc(S(=O)(=O)N2CCCCC2)c1)NCc1ccccc1`, the cell number change turned out to be 8.85%. Further, the concentration at half-maximal activity (AC50) under setting [2] was 3.26 µM [falling, single point].

Regarding `COc1cc(/C=C/[N+](=O)[O-])ccc1OC(=O)/C=C/c1ccc(F)cc1`, the cell number change is -3.52%.

For `O=[N+]([O-])c1ccc(CNc2ccc(Cl)cc2)s1`, the cell number change was -8.84%. Moreover, the AC50 under setting [2] was 29.1 µM [rising, single point].

As to `CC(C)Cn1c(=O)n(C)c(=O)c2[nH]cnc21`, the cell number change turned out to be 8.33%. Besides, under setting [2], the concentration at half-maximal activity (AC50) was 0.058 µM [rising, full curve, poor fit].

With `CC(=O)c1cccc(NC(=O)N2CCCC2C(=O)NCCc2ccccc2)c1` (stereo unspecified), the cell number change was determined as 38%. Further, under setting [1], the AC50 is 25.9 µM [rising, single point].

`COCCOC(=O)c1c(C)n(C)c2ccc(OC(=O)N3CCOCC3)cc12`: the AC50 under setting [2] was 0.259 µM [rising, full curve].

In the case of `CC(C)c1ccc(NC(=O)C(c2ccccc2)N2CCC3(CC2)OCCO3)cc1` (stereo unspecified), the cell number change is -11.6%. Besides, under setting [2], the AC50 was 29.1 µM [falling, single point].

In the case of `O=C(Cn1nc(-c2ccco2)ccc1=O)Nc1cc(Cl)ccc1Cl`, the cell number change was -12.7%. Also, the AC50 under setting [2] is 20.6 µM [falling, single point].

Take `COc1ccccc1OCCNC(=O)CCC(=O)N1CCOCC1`: the cell number change was 2.3%. The AC50 under setting [2] is 7.31 µM [falling, partial curve, poor fit].

With `CC(Oc1ccc(Cl)cc1)C(=O)Nc1ccc(S(=O)(=O)N2CCOCC2)cc1` (stereo unspecified), the cell number change was found to be 4.7%. For the same compound, the concentration at half-maximal activity (AC50) under setting [2] was 6.51 µM [falling, partial curve].

With `Cc1cccc(C(=O)NC(NCCc2ccccc2)C(Cl)(Cl)Cl)c1` (stereo unspecified), under setting [1], the AC50 is 0.116 µM [rising, full curve, poor fit].

Turning to `CCOC(=O)C1=C(C)OC(N)=C(C#N)C1c1cc(SCC)oc1C` (stereo unspecified), the cell number change is -23.2%. For the same compound, the AC50 under setting [2] is 29.1 µM [falling, single point].

On to `C=CCn1c(SCC(=O)Nc2nc(C)cs2)nnc1C(NC(=O)c1ccccc1)C(C)C` (stereo unspecified), for which the cell number change is -54%. For the same compound, under setting [1], the AC50 was 14.6 µM [falling, single point]. Further, the AC50 under setting [2] was 13 µM [falling, partial curve].

As for `CCOc1ccc2sc(NS(=O)(=O)c3ccc(OC)c(OC)c3)nc2c1`, the cell number change was 16%. Also, under setting [2], the concentration at half-maximal activity (AC50) was 5.17 µM [falling, partial curve].

Regarding `O=C(Cc1ccc(Cl)cc1Cl)OCC(=O)N1CCCCC1`, the cell number change came to 11.7%.

Take `Cc1ccc(/C(O)=C2/C(=O)C(=O)N(Cc3ccco3)C2c2cccs2)cc1` (stereo unspecified): the cell number change is -3.93%.

With `COc1ccc(S(=O)(=O)NCC2CCCO2)cc1NC(=O)c1ccc(Cl)cc1` (stereo unspecified), the cell number change is 64.6%. In addition, the concentration at half-maximal activity (AC50) under setting [1] was 29.1 µM [rising, single point].

Consider `COc1ccc(NC(=O)n2ncc3cc(Cl)ccc32)cc1OC`, for which the cell number change was -16.2%. The AC50 under setting [2] is 0.103 µM [falling, full curve].

Regarding `CN1C(=O)C(O)(CC(=O)c2cccc(-n3cccc3)c2)c2ccccc21` (stereo unspecified), the half-maximal activity concentration (AC50) under setting [2] was 6.51 µM [rising, single point].

As for `COc1cccc(NC(=O)COC(=O)/C=C/c2ccc(Cl)cc2Cl)c1`, the cell number change is -1.1%.

As to `c1cnc2cc(-c3ccsc3)ncc2c1`, the cell number change came to 2.72%.

`COc1c2ccccc2c(OC)c2ccccc12`: the cell number change was -47.3%. In addition, the AC50 under setting [1] is 32.6 µM [falling, partial curve]. Also, the concentration at half-maximal activity (AC50) under setting [2] is 29.1 µM [falling, partial curve, poor fit].

As to `CCC(=O)NC(=S)Nc1ccc(NC(=O)c2cc3ccccc3o2)c(OC)c1`, the cell number change was -44.9%. Besides, under setting [1], the concentration at half-maximal activity (AC50) is 10.3 µM [falling, partial curve, poor fit]. The concentration at half-maximal activity (AC50) under setting [2] was 7.31 µM [falling, partial curve].

Regarding `COc1ccc(NC(=O)c2cc(-c3cccnc3)nc3ccc(C)cc23)cc1OC`, the cell number change was -68.1%. Moreover, the AC50 under setting [1] is 29.1 µM [falling, single point]. The AC50 under setting [2] is 29.1 µM [falling, single point].

Consider `COc1ccccc1OCC(=O)Nc1ccc(-c2nnc(-c3ccco3)o2)cc1`, for which the cell number change is -9.61%. Also, the AC50 under setting [2] is 0.116 µM [falling, full curve, poor fit].

In the case of `COc1ccc(-c2nc3ccccc3c(=O)n2CCOc2ccccc2C)cc1`, the cell number change worked out at 11.2%. Also, the AC50 under setting [2] was 2.59 µM [rising, partial curve].

For the compound `CCOc1nc(Nc2ccc(F)cc2)nc(N2CCN(c3ccc(OC)cc3)CC2)n1`, the cell number change worked out at 8.18%. Under setting [2], the AC50 is 1.84 µM [rising, partial curve].

Turning to `COC(=O)C1=C(N)Oc2cc(C)n(Cc3ccccc3)c(=O)c2C1c1ccccc1` (stereo unspecified), the cell number change is 59.5%. Besides, the AC50 under setting [1] is 5.17 µM [rising, full curve]. Under setting [2], the AC50 was 6.51 µM [rising, single point].

On to `CN(C)C(=O)CCN1CCOCC1`, for which the cell number change was 9.48%.

Consider `O=S(=O)(NCC1CCN(c2ccc(S(=O)(=O)N3CCOCC3)cc2)CC1)c1ccccc1`, for which the cell number change came to 31%. Moreover, the AC50 under setting [1] was 23.1 µM [rising, single point].

Turning to `O=C(CCNS(=O)(=O)c1ccccc1C(F)(F)F)Nc1ccncc1`, the cell number change is 11.9%. In addition, the AC50 under setting [2] was 16.4 µM [rising, partial curve, poor fit].

Regarding `COc1ccc(Cl)cc1NC(=O)CCN1CCN(C)CC1`, the cell number change is -1.43%. The AC50 under setting [2] was 14.6 µM [rising, partial curve].

Consider `Cc1ccc2c(c1)N(S(=O)(=O)c1ccc(CN3C(=O)c4cccnc4C3=O)s1)CCO2`, for which the AC50 under setting [2] was 0.116 µM [rising, full curve, poor fit].

As to `CCC(C)(C)n1nnnc1C(c1ccc(C)cc1)N1CCN(Cc2cccnc2)CC1` (stereo unspecified), the cell number change is -5.52%. Also, the AC50 under setting [2] was 0.116 µM [rising, full curve, poor fit].

With `CSc1ncccc1C(=O)N1CCCC(N2CCN(c3ccccc3F)CC2)C1` (stereo unspecified), the cell number change was -8.04%.

As to `COc1ccccc1Cn1c(=S)[nH]c2ccc(F)cc2c1=O`, the cell number change is 14.1%. Moreover, under setting [1], the AC50 is 5.17 µM [rising, partial curve].

In the case of `Cc1ccccc1OCC(=O)Nc1ccccc1N1CCCCC1`, the cell number change is -27.2%. In addition, the AC50 under setting [2] is 13 µM [falling, partial curve].

As for `CCOP(=O)(OCC)c1nc(-c2ccc(Cl)cc2Cl)oc1N1CCCCC1`, the cell number change turned out to be 8.21%. The AC50 under setting [2] is 0.58 µM [falling, single point].

For `O=C(COc1ccc(Br)cc1)N/N=C1/SCC(=O)N1Cc1ccco1`, the cell number change is -50.5%. Besides, under setting [1], the AC50 was 25.9 µM [falling, partial curve].

For the compound `O=C(CCn1c(=O)c2cccn2c2ccc(F)cc21)NCc1cccc(F)c1`, the cell number change is -54.2%. Under setting [1], the AC50 is 29.1 µM [falling, single point].

As to `Cc1nn(C)c(C)c1/C=N/N=C1\CCC2C3CCc4cc(O)ccc4C3CCC12C` (stereo unspecified), the cell number change was -8.48%.

As for `C[C@H](C(O)c1ccccc1)N(C)C(=O)CN` (stereo partly specified), the AC50 under setting [2] was 29.1 µM [rising, single point].

With `Cc1ccc(C)n1-n1c(C)nc2sc(-c3ccccc3)cc2c1=O`, the AC50 by setting is: under setting [1], 2.91 µM [rising, partial curve]; under setting [2], 2.31 µM [rising, partial curve].

`CC(C)NCC(=O)C12CC3CC(CC(C3)C1)C2`: the cell number change came to 0.117%.

For `CCC(=O)OCCCCCCOc1ccc(C(=O)O)cc1`, the cell number change was -24.2%. In addition, the AC50 under setting [2] was 20.6 µM [rising, single point].

With `COC(=O)c1ccc(COC(=O)CNC(=O)c2ccc(-c3ccccc3)cc2)cc1`, the cell number change turned out to be 6.11%. Further, under setting [2], the AC50 was 29.1 µM [falling, single point].

For `COc1cccc(CNC(=O)COC(=O)c2cc(Br)c(Br)s2)c1`, the cell number change was -52.5%. Further, under setting [1], the AC50 is 23.1 µM [falling, single point].

In the case of `COc1ccc(N=C2SC(CC(=O)Nc3cccc(Cl)c3)C(=O)N2Cc2ccco2)cc1` (stereo unspecified), the half-maximal activity concentration (AC50) under setting [2] was 29.1 µM [falling, single point].

In the case of `Cc1cc(N2C(=O)C(O)=C(C(=O)c3ccco3)C2c2ccc(Cl)cc2)no1` (stereo unspecified), the cell number change is -5.42%. The half-maximal activity concentration (AC50) under setting [2] was 6.51 µM [falling, single point].

For the compound `Cc1cc(=O)oc2cc(OCC(=O)N3CCCC3)c(Cl)cc12`, the cell number change is 8.14%. Also, the AC50 under setting [2] was 18.4 µM [falling, single point].

For `COc1cc(CCC(=O)OCC(=O)c2ccc[nH]2)cc(OC)c1OC`, the cell number change came to 0.937%. Also, under setting [2], the AC50 is 2.59 µM [falling, single point].

On to `COc1ccc(CC(=O)OCC(=O)NCc2ccco2)cc1`, for which the cell number change was -19.8%. The AC50 under setting [1] was 6.51 µM [falling, single point]. The AC50 under setting [2] was 3.26 µM [falling, full curve].

Regarding `CCn1c(C)nc2cc(S(=O)(=O)C(F)(F)C(F)C(F)(F)F)ccc21` (stereo unspecified), the cell number change is -52.2%. The concentration at half-maximal activity (AC50) under setting [1] was 18.4 µM [falling, single point]. In addition, the AC50 under setting [2] was 6.51 µM [falling, full curve].

Take `Cc1cc(C(=O)COC(=O)c2ccc3c(c2)OCO3)c(C)n1CC1CCCO1` (stereo unspecified): the cell number change turned out to be 103%. For the same compound, under setting [1], the AC50 is 2.59 µM [rising, full curve].

For `CC12CCC(C(=O)N(CC(O)CN3CCCCC3)C1=O)C2(C)C` (stereo unspecified), the cell number change is -72.4%. Also, under setting [1], the AC50 was 18.4 µM [falling, partial curve].

For the compound `Cc1cc(-c2ccc(C)c(S(=O)(=O)N3CCN(c4ccc(F)cc4)CC3)c2)on1`, the cell number change was 29.5%. Besides, the half-maximal activity concentration (AC50) under setting [1] was 0.366 µM [rising, full curve, poor fit]. Further, the AC50 under setting [2] was 29.1 µM [rising, single point].

Regarding `Cc1cc(C)nc(SCc2ccc(C(=O)NN=C3C4CC5CC(C4)CC3C5)cc2)n1`, the cell number change is -33.3%. In addition, the AC50 under setting [1] is 0.00461 µM [falling, full curve, poor fit]. Besides, under setting [2], the AC50 was 18.4 µM [rising, single point].

On to `Cn1c(SCC(=O)NC(=O)NCc2ccco2)nnc1C(F)(F)F`, for which the cell number change turned out to be 24.1%. Further, the AC50 under setting [2] was 0.651 µM [rising, full curve, poor fit].
